Data from PMC7395150.

Sequences of proteins named here, by UniProt entry; tags and fusion partners are left off.
UniProt P27169: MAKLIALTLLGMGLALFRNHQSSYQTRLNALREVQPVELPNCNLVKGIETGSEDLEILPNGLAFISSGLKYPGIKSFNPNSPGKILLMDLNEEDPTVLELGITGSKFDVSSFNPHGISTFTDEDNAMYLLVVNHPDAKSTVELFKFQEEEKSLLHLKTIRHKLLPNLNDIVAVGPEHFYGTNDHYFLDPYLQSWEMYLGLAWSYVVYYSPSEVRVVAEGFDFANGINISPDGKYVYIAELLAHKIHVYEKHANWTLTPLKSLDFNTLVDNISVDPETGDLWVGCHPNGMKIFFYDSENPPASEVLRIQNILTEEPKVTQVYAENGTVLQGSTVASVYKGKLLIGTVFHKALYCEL

Experiments:
[1] = target: T1, Synthetic SPP24 peptide …; test: affinity purification with mass spectrometry; 'primary' binders: as the peptide capture, but captured serum proteins washed (PBS pH 7.4, 0.1% Tween20, then PBS pH 7.4), incubated overnight at room temperature with trypsin 10 µg on the beads, washed repeatedly, released with 0.15% TFA, LC-MS/MS; only the target purified
T1 sequence (peptide): VSAQQVQGVHAR

[2] = target: T1, Synthetic SPP24 peptide …; test: affinity purification with mass spectrometry; synthetic SPP24 peptide bound to tosylactivated magnetic beads; pooled whole serum of UC, CD and controls (5 patients each); eluted proteins digested with trypsin, ESI-LC-MS/MS; only the target purified
[3] = target: Paraoxonase 1 (PON1) (human (endogenous in serum)) (UniProt P27169); test: affinity purification with mass spectrometry; reverse binding: polyclonal PON1 antibody as the bait, capture from serum, eluted proteins digested with trypsin, ESI-LC-MS/MS

## Paraoxonase 1 (PON1) (from UniProt P27169 1-355) (enzyme)
[1]
  binding: binds

B1: α-2-macroglobulin (protein, UniProt P01023 24-1474)
chain: SVSGKPQYMVLVPSLLHTETTEKGCVLLSYLNETVTVSASLESVRGNRSLFTDLEAENDVLHCVAFAVPKSSSNEEVMFLTVQVKGPTQEFKKRTTVMVKNEDSLVFVQTDKSIYKPGQTVKFRVVSMDENFHPLNELIPLVYIQDPKGNRIAQWQSFQLEGGLKQFSFPLSSEPFQGSYKVVVQKKSGGRTEHPFTVEEFVLPKFEVQVTVPKIITILEEEMNVSVCGLYTYGKPVPGHVTVSICRKYSDASDCHGEDSQAFCEKFSGQLNSHGCFYQQVKTKVFQLKRKEYEMKLHTEAQIQEEGTVVELTGRQSSEITRTITKLSFVKVDSHFRQGIPFFGQVRLVDGKGVPIPNKVIFIRGNEANYYSNATTDEHGLVQFSINTTNVMGTSLTVRVNYKDRSPCYGYQWVSEEHEEAHHTAYLVFSPSKSFVHLEPMSHELPCGHTQTVQAHYILNGGTLLGLKKLSFYYLIMAKGGIVRTGTHGLLVKQEDMKGHFSISIPVKSDIAPVARLLIYAVLPTGDVIGDSAKYDVENCLANKVDLSFSPSQSLPASHAHLRVTAAPQSVCALRAVDQSVLLMKPDAELSASSVYNLLPEKDLTGFPGPLNDQDNEDCINRHNVYINGITYTPVSSTNEKDMYSFLEDMGLKAFTNSKIRKPKMCPQLQQYEMHGPEGLRVGFYESDVMGRGHARLVHVEEPHTETVRKYFPETWIWDLVVVNSAGVAEVGVTVPDTITEWKAGAFCLSEDAGLGISSTASLRAFQPFFVELTMPYSVIRGEAFTLKATVLNYLPKCIRVSVQLEASPAFLAVPVEKEQAPHCICANGRQTVSWAVTPKSLGNVNFTVSAEALESQELCGTEVPSVPEHGRKDTVIKPLLVEPEGLEKETTFNSLLCPSGGEVSEELSLKLPPNVVEESARASVSVLGDILGSAMQNTQNLLQMPYGCGEQNMVLFAPNIYVLDYLNETQQLTPEIKSKAIGYLNTGYQRQLNYKHYDGSYSTFGERYGRNQGNTWLTAFVLKTFAQARAYIFIDEAHITQALIWLSQRQKDNGCFRSSGSLLNNAIKGGVEDEVTLSAYITIALLEIPLTVTHPVVRNALFCLESAWKTAQEGDHGSHVYTKALLAYAFALAGNQDKRKEVLKSLNEEAVKKDNSVHWERPQKPKAPVGHFYEPQAPSAEVEMTSYVLLAYLTAQPAPTSEDLTSATNIVKWITKQQNAQGGFSSTQDTVVALHALSKYGAATFTRTGKAAQVTIQSSGTFSSKFQVDNNNRLLLQQVSLPELPGEYSMKVTGEGCVYLQTSLKYNILPEKEEFPFALGVQTLPQTCDEPKAHTSFQISLSVSYTGSRSASNMAIVDVKMVSGFIPLKPTVKMLERSNHVSRTEVSSNHVLIYLDKVSNQTLSLFFTVLQDVPVRDLKPAIVKVYDYYETDEFAIAEYNAPCSKDLGNA
[2]
  binding: binds

B2: Secreted phosphoprotein 24 (SPP24) (protein, UniProt Q13103 30-211)
chain: FPVYDYDPSSLRDALSASVVKVNSQSLSPYLFRAFRSSLKRVEVLDENNLVMNLEFSIRETTCRKDSGEDPATCAFQRDYYVSTAVCRSTVKVSAQQVQGVHARCSWSSSTSESYSSEEMIFGDMLGSHKWRNNYLFGLISDESISEQFYDRSLGIMRRVLPPGNRRYPNHRHRARINTDFE
[3]
  binding: binds

Results are given in words; binding and its absence hold for the method and conditions named. In cells and extracts the contact can be indirect. Here binding means that the protein was enriched with, or labelled near, the bait; the list need not be complete.
